From patent US20210130417A1 (University of Notre Dame du Lac, priority 2017, published 2021)

Assay: peptide made by a vendor
Details: whole synthesis

For “PEPTIDE1{L.S.L.I.A.A.A.G.K.E.T.I.R.Q.Y.L.K.N.E.I.K.K.K.G.R.K.A.V.I.A.W}$$$$V2.0”, the “purity (crude or final not stated)” value was 95%.

HELM strings list residues between dots; [ac] is acetyl, [am] amide, other brackets name non-standard units.
